No constants are given. Whether binding was seen depends on the method and setting. Binding seen in cells or lysates may run through a third protein. A yes stands for co-enrichment or nearness to the bait. Other partners may have been found. Sequences can lack the tags named with a protein.
B1: AlgFPa (protein, UniProt Q06062 29-216)
chain: DEGALYGPQAPKGSAFVRAYNAGNSELDVSVGSTSLNDVAPLGSSDFKFLPPGSYTAQVGQQSLPVKLDPDSYYTLVSQPGGKPQLVAEPPFKNKQKALVRVQNLSGSKLTLKTADGKTDVVKDVGPQSHGDREINPVKVNLALFDGSKKVSDLKPVTLARGEVVCLYVTGSGGKLAPVWVKRPVKAD
B2: AlgKPa (protein, UniProt P96956 28-475)
chain: CAGLPDQRLAQEALERGDLATAQSNYQALAAMGYADAQVGLADMQVASGDSAQQAKAEKLYREAAQTSPRARARLGKWLAAKPGASDAEHREAERLLSQAFEQGEDSALVPLIVLYLQYPQSWPEIDPQQRIDQWRARGLPQADLAQIILYRTQGTYAQHLGEIEQVCQRWLRRMDVCWYELATVYQMQGNAEKQKVLLEQLRAAYKAGRVPGERVDSVAGVLADGELGQPDPQTAQALLEEIAPSYPAAWVSLAKLLYDYPDQGDLEKMLGYLKNAQDAAQPRAELLLGRLYYDGKWAPQDPRKAERHLLKAAASEPQANYYLGQIYRRGFLGKVYPQKAVDHLILAARAGQASADMALAQLWSQGRGIQPNRVNAYVFGQLAVQQQVPQASDLLGQIEAQLPPAERSQAQQLLKREQQSRGNNWQATVSLLQSQDSPINEEEPESL

The chains behind the UniProt entries cited, without tags or fusion partners. Residues count along the entry.
UniProt Q51372, residues 27-474: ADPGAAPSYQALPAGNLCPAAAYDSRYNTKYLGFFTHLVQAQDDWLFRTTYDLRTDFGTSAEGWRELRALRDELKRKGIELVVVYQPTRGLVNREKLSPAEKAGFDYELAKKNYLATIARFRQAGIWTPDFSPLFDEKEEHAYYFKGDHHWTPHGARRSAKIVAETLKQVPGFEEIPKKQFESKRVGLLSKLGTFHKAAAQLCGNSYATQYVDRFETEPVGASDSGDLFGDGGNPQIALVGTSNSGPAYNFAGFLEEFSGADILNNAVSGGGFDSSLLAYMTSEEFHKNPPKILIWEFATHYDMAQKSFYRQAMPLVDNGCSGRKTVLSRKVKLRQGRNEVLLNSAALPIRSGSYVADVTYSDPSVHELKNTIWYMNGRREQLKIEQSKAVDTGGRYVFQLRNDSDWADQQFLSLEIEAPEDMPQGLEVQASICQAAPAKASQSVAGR

Target: AlgXPa^C-VSV-G (Pseudomonas aeruginosa PAO1) (UniProt Q51372)
Assay: affinity purification with mass spectrometry

Binder | binding
B1 | binds
B2 | binds

Reference: publication PMC10641220, “Pseudomonas aeruginosa AlgF is a protein–protein interaction mediator required for acetylation of the alginate exopolysaccharide” (The Journal of Biological Chemistry, 2023)
